Some of these results come from one statement about several compounds together.
Columns and labels:
Assay type in all cases: in vivo
[1] = system: barley net blotch fungus (Pyrenophora teres); assay: Test Example 1: barley net blotch, foliar spray preventive test; conditions: barley (Mikamo-Golden), 500 ppm foliar spray, inoculated 2 days after spraying, assessed after 3 + 7 days
[2] = system: wheat speckled leaf blotch fungus (Septoria tritici); assay: Test Example 5: wheat speckled leaf blotch, foliar spray preventive test; conditions: wheat (Apogee), 500 ppm foliar spray, inoculated 4 days after spraying, assessed after 3 days + 14 to 18 days
[3] = system: kidney bean stem rot fungus (Sclerotinia sclerotiorum); assay: Test Example 4: kidney bean stem rot, foliar spray preventive test; conditions: kidney bean (Nagauzura Saitou), 500 ppm foliar spray, hyphae-containing PDA medium on leaves, four days after inoculation

Measured: area of the lesion on treated plant relative to untreated plant

COC(=O)Nc1cccc(C)c1COc1ccc(-c2nccc(C)n2)cc1C [Compound 2]
≤ 30%: all assays above

COC(=O)Nc1ccccc1COc1ccc(-c2nccc(C)n2)cc1C [Compound 1]
≤ 30%: all assays above

— patent US10194662B2, “Carbamate compound and use thereof” (SUMITOMO CHEMICAL COMPANY, LIMITED, priority 2015, dated 2019)
